# Several values for one entry are separate records, joined by “and”; a condition that tells them apart may be missing. Equal values may be shown once. Among all 220,000 compounds or so, about 770 (0.35%) were called active. The inconclusive results got no clear call from the source; some entries with a clear call stand among them for comparison. No stated cut-off is given here; in the data, active means binding response below about 49% or above about 150%; inconclusive means no clear call, values can overlap the other calls; inactive means in between.
# The chains behind the UniProt entries cited, without tags or fusion partners.
# UniProt P09471, whole entry, looked up: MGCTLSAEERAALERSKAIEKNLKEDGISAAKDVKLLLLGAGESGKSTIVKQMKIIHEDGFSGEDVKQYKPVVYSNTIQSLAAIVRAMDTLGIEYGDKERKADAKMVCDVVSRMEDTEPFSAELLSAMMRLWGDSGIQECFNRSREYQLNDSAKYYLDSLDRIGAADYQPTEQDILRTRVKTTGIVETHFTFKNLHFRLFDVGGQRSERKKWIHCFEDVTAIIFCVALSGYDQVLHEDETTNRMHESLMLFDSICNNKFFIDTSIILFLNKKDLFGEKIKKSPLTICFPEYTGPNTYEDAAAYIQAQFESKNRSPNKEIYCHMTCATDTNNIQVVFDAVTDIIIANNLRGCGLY
# Biological target: Guanine nucleotide-binding protein G(o) subunit alpha (Homo sapiens) (UniProt P09471)
# Assay: RGS7-Galphao binding modulators, primary screen, biochemical, multiplexed bead flow cytometry (AID 1439);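 further: fluorescent Galphao held in activated GDP-AlF4 state binding bead-coupled RGS7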
# Conditions: at 10 µM, actives lie on both sides
row,Compound,binding response (% of control)
1,CCN(C(C)=O)c1ccc(Oc2nc(OC)cc(OC)n2)cc1,inconclusive: 149%
2,Cc1cccc(NC(=O)c2ccc(NCCO)c([N+](=O)[O-])c2)n1,inconclusive: 98%
3,COC(=O)CC(N)c1ccc(Br)cc1 (configuration not stated),inconclusive: 113%
4,Cc1ccnc(NC(=O)c2cc3c(=O)oc4ccc(C)cc4c3s2)c1,inconclusive: 109%
5,CCOP(=O)(OCC)C(Nc1cccc([N+](=O)[O-])c1)c1ccccc1 (configuration not stated),inconclusive: 590%
6,Cc1cccc(C)c1NC(=O)CSc1nc(-c2ccco2)cc(C(F)(F)F)n1,inactive: 118%
7,O=C(CSC1c2ccccc2C(=O)N1c1ccccc1)N1CCOCC1 (configuration not stated),inactive: 99.5%
8,CN(C)S(=O)(=O)c1cccc(NC(=O)COC(=O)COc2ccccc2[N+](=O)[O-])c1,inconclusive: 103%
9,O=C(CSc1nnnn1-c1ccccc1)Nc1ccc(Cl)cc1,inactive: 96.1%
10,CCC(=O)N1CCC(C(N)=O)(N2CCCCC2)CC1,active: 161% [activator]
11,COc1ccc(N2C(=O)CC(N(CCc3ccc(S(N)(=O)=O)cc3)C(=S)Nc3ccccc3)C2=O)cc1 (configuration not stated),inconclusive: 86%
12,O=C(Oc1ccc2c(c1)OCC2=O)c1ccc(Cl)cc1,inconclusive: 72.1%
13,CCN(CC)C(=O)CN1C(=O)/C(=C/c2ccccc2)SC1=S,inconclusive: 53%
14,COCCNc1ncnc2c1[nH]c1ccccc12,inconclusive: 129%
15,N=c1c2c(ncn1CCCO)Oc1cc(O)ccc1C2c1ccccc1 (configuration not stated),inconclusive: 78%
16,N#CCc1ccc(Oc2ncc(C(F)(F)F)cc2Cl)cc1,inconclusive: 97.8%
17,O=C(NCc1cccnc1)C1CCC(c2ccc(Cl)cc2)CC1 (configuration not stated),inconclusive: 131%
18,COc1ccc(C(=O)NNC(=O)C2CCCO2)cc1 (configuration not stated),inconclusive: 111%
19,CCN1CCN(Cc2ccc(NC(=O)c3ccc(C)c(NC(=O)c4cc(-c5ccc(Br)cc5)n[nH]4)c3)cc2C(F)(F)F)CC1,inconclusive: 106%
20,O=C(Cc1cccs1)N1CCN=C1SCc1cccc(F)c1,inconclusive: 115%
21,CC(C)c1nc(C#N)c(NN)o1,inconclusive: 104%
22,CCC(=O)NNC(=O)CCC(=O)Nc1ccc(C)cc1C,inconclusive: 91.3%
23,CCOC(=O)CN1C(=N)N(c2nc(NC(C)C)nc(NC(C)C)n2)CC1=O,inactive: 100%

# Three compounds picked at random from the list so far, as already listed:
row,Compound,binding response (% of control)
9,O=C(CSc1nnnn1-c1ccccc1)Nc1ccc(Cl)cc1,inactive: 96.1%
19,CCN1CCN(Cc2ccc(NC(=O)c3ccc(C)c(NC(=O)c4cc(-c5ccc(Br)cc5)n[nH]4)c3)cc2C(F)(F)F)CC1,inconclusive: 106%
23,CCOC(=O)CN1C(=N)N(c2nc(NC(C)C)nc(NC(C)C)n2)CC1=O,inactive: 100%

# The results go on.

row,Compound,binding response (% of control)
1,Cc1nnc(SCC(=O)Nc2c(C)n(C)n(-c3ccccc3)c2=O)n1Cc1ccccc1,inconclusive: 95.5%
2,CCOC(=O)C(C)Sc1nc2c([nH]c3ccccc32)c(=O)n1C (configuration not stated),inactive: 99.9%
3,O=C(O)CCC(=O)Nc1sc2c(c1C(=O)Nc1ccccc1)CCCCC2,inactive: 105%
4,COc1ccccc1-n1c(SCC(=O)N2CCCC2)nnc1-c1ccccc1,inconclusive: 142%
5,CCN(CC)S(=O)(=O)c1cc(C(=O)Nc2cccnc2Cl)ccc1Cl,inconclusive: 89.7%
6,CCN(CC)C(=O)CC(c1ccc2c(c1)OCO2)c1c(O)cc(OC)cc1OC (configuration not stated),inconclusive: 107%
7,CCn1nc(NC(=O)c2ccco2)c2cc3cc(C)ccc3nc21,inconclusive: 155%
8,CCOC(=O)C(=O)N(Nc1ccc(C)cc1)c1ccc(C)cc1,inconclusive: 143%
9,CCc1cccc(CC)c1NC(=S)Nc1cccc(Cl)c1Cl,inconclusive: 98%
10,CCSc1cc(C)nc2c(-c3ccccc3)cnn12,inconclusive: 35.3%
11,O=C(CCC(=O)N1CCN(C(=O)c2ccco2)CC1)c1ccc(F)cc1,inconclusive: 107%
12,Cc1cc(C)nc(N/N=C/c2ccc(Cl)cc2)n1,inconclusive: 63.9%
13,O=c1cc(-c2ccc([N+](=O)[O-])cc2)c2ccc(O)cc2o1,inconclusive: 107%
14,Cc1ccccc1-c1nn(-c2ccc(F)cc2F)cc1CNCCCN(C)C,inactive: 95.1%
15,O=[N+]([O-])c1ccccc1O[C@@H]1O[C@H](CO)[C@H](O)[C@H](O)[C@H]1O,inconclusive: 166%
16,Cc1nnc(SCC(=O)N2CCN(c3ccccc3)CC2)n(N)c1=O,inactive: 98%
17,O=c1c2cc(-c3ccccc3)sc2nc2n1CCC2,inconclusive: 111%
18,Cc1nn(-c2ccccc2)c(N2CCCC2)c1/C=N/NC(=O)C1CC1,inconclusive: 112%
19,N#CCC(=O)Nc1ccc(C(=O)OCC(=O)Nc2cccc(C(F)(F)F)c2)cc1,inconclusive: 93.5%
20,COCCc1nnc(NC(=O)C(C)C)s1,inconclusive: 90.2%
21,Cc1ccc(C23CC4CC(CC(C(=O)N5CCN(C)CC5)(C4)C2)C3)cc1,inconclusive: 114%
22,S=C1NCN(CCc2ccccc2)CN1Cc1ccccc1,inconclusive: 69.4%
23,O=C(NNc1ccc(F)cc1F)C1CCC1,inconclusive: 78.7%

row,Compound,binding response (% of control)
1,CCOC(=O)Nc1ccc(C)cc1NC(=O)OCC,inactive: 105%
2,O=c1cc(CO)oc(C(Nc2cccc(C(F)(F)F)c2)c2ccccn2)c1O (configuration not stated),inconclusive: 73.1%
3,CCc1ccc(NC(=O)C2C3/C=C\CCCCC32)cc1 (configuration not stated),inactive: 104%
4,Cc1ccc(-n2nc3c(SCCN4CCOCC4)nnc(C)c3c2C)cc1,inactive: 99.8%
5,Nc1nonc1N/N=C\c1ccccc1,inconclusive: 97.9%
6,Cc1cc(NCc2ccccn2)n2nc(C)c(-c3ccc(Cl)cc3)c2n1,inconclusive: 135%
7,CCOC(=O)n1c(=O)[nH]c2ccc(Br)cc21,inactive: 106%
8,CC1CC2c3cccc(C(=O)O)c3C(=O)N2c2ccc(Cl)cc21 (configuration not stated),inconclusive: 81.8%
9,COc1ccc(C(=O)NC(=S)NC2CCSC2=O)cc1 (configuration not stated),inactive: 103%
10,O=C(O)C(Cc1c[nH]c2ccccc12)N1C(=O)c2ccccc2C1=O (configuration not stated),inconclusive: 113% and inconclusive: 74.7%
11,COC(=O)c1ccc(Cn2cc(Cl)cn2)o1,inconclusive: 79.8%
12,CC(=O)Oc1ccccc1N(C(C)=O)S(=O)(=O)c1cccc([N+](=O)[O-])c1,inactive: 96.3%
13,Nc1c(Cl)ncnc1NCC(O)CO (configuration not stated),inconclusive: 90.2%
14,Cc1ccc(OCC(=O)Nc2ccc3c(c2)nc(CCN2CCN(C)CC2)n3C)cc1,inconclusive: 24.5%
15,CC(C)Cn1c(N2CCN(CC(=O)Nc3ccc(Cl)cc3)CC2)nc2ccccc21,inactive: 98%
16,Cc1ccc(/C=C/C(=O)O)cc1S(=O)(=O)N1CCCc2ccccc21,inconclusive: 90.4%
17,Clc1cc2c(nn1)Nc1ccccc1S2,inconclusive: 101%
18,O=C(CSc1n[nH]c(=O)[nH]c1=O)Nc1ccc2c(c1)C(=O)c1ccccc1C2=O,inconclusive: 138%
19,COc1cc(NC(=O)c2cc3ccccc3cc2O)c(OC)cc1Cl,inconclusive: 95.3%
20,Cc1ccc(-n2ncc3c(=O)[nH]c(SCC(=O)N4CCC(C)CC4)nc32)cc1C,inactive: 114%
21,COC(=O)c1cc2c(cc1[N+](=O)[O-])OCO2,inconclusive: 111%
22,CCOC(=O)c1nc(SC)n(C)c1C(=O)OCC,inconclusive: 122%
23,CC1=CCC(C(=O)O)C(C(=O)Nc2nc3ccc(S(C)(=O)=O)cc3s2)C1 (configuration not stated),inactive: 100%

row,Compound,binding response (% of control)
1,CCS(=O)(=O)NCCc1csc(-c2ccc(OC)c(OC)c2)n1,inconclusive: 92.8%
2,CN(C(=O)COc1ncnc2c1cnn2-c1ccccc1)C1CCCCC1,inconclusive: 114%
3,CC(=O)Nc1ccc(S(=O)(=O)NNC(=O)COc2ccc(Cl)cc2Cl)cc1,inconclusive: 74.9%
4,COc1ccc(/C=N/NC(=S)Nc2c(C)n(C)n(-c3ccccc3)c2=O)cc1OC,inconclusive: 110%
5,S=C1NCN(Cc2ccco2)CN1CCc1ccccc1,inconclusive: 107%
6,O=C(CSc1ncnc2ccccc12)Nc1ccc2c(c1)OCCO2,inconclusive: 112%
7,NS(=O)(=O)c1ccc(N=C2C(=O)Nc3ccccc32)cc1,inconclusive: -41.1%
8,CCOc1ccc(NC(=O)CSc2ncc(-c3ccc(F)cc3)n2Cc2ccco2)cc1,inconclusive: 103%
9,COc1ccc(CCNC(=O)C2CCN(C(=O)c3ccc([N+](=O)[O-])cc3)CC2)cc1,inactive: 102%
10,Cn1nc(C(F)(F)F)c(C(=O)Nc2ccc(F)cc2F)c1Cl,inconclusive: 99.5%
11,Cn1c(NC(=O)CC2CCCCC2)cc(=O)n(C)c1=O,inconclusive: 83.2%
12,Cc1nn(-c2ccccc2)c(=S)c2ccccc12,inactive: 91.1%
13,CN1CCc2c(sc(/N=C/c3cc(C(C)(C)C)ccc3O)c2C#N)C1,inconclusive: 55%
14,CC(=O)NN1C(=O)c2ccc(Oc3cccc([N+](=O)[O-])c3)cc2C1=O,inactive: 100%
15,N#Cc1ccc(S(=O)(=O)N2CCc3[nH]c4ccc(F)cc4c3C2)cc1,inconclusive: 158%
16,C/C(=N/OC(=O)c1ccc(C)cc1)C(=O)c1ccc(Br)cc1,inconclusive: 44.5%
17,Cc1cc(-n2cccn2)ccc1CN1CCN(CC(C)C)C(CCO)C1 (configuration not stated),inconclusive: 142%
18,COc1ccc(C2CC(=O)C(C=NCCN3CCN(C(=S)Nc4ccccc4)CC3)=C(O)C2)cc1 (configuration not stated),inconclusive: 42.1%
19,COc1cccc(N2CN(CCc3ccccc3)CNC2=S)c1,inconclusive: 43%
20,Cc1ccc([N+](=O)[O-])cc1S(=O)(=O)Nc1ccc(N2CCOCC2)cc1,inconclusive: 89.6%
21,Cc1cccc(NC(=O)c2cc([N+](=O)[O-])ccc2NCC2CCCO2)n1 (configuration not stated),inconclusive: 105%
22,COc1cccc(C(=O)NCCSc2c(C)[nH]c3ccccc23)c1OC,inconclusive: 69.2%
23,CCOc1cccc(NC(=O)c2ccc(S(=O)(=O)N3CCCC3)cc2)c1,inconclusive: 127%
